Article PMC12604043
Results are given in words; binding and its absence hold for the method and conditions named. In cells and extracts the contact can be indirect. A yes stands for co-enrichment or nearness to the bait. Other partners may have been found.

B1: tRNA-splicing ligase Rtcb homologue (endogenous, human) (protein, UniProt Q9Y3I0 1-505)
chain: MSRSYNDELQFLEKINKNCWRIKKGFVPNMQVEGVFYVNDALEKLMFEELRNACRGGGVGGFLPAMKQIGNVAALPGIVHRSIGLPDVHSGYGFAIGNMAAFDMNDPEAVVSPGGVGFDINCGVRLLRTNLDESDVQPVKEQLAQAMFDHIPVGVGSKGVIPMNAKDLEEALEMGVDWSLREGYAWAEDKEHCEEYGRMLQADPNKVSARAKKRGLPQLGTLGAGNHYAEIQVVDEIFNEYAAKKMGIDHKGQVCVMIHSGSRGLGHQVATDALVAMEKAMKRDKIIVNDRQLACARIASPEGQDYLKGMAAAGNYAWVNRSSMTFLTRQAFAKVFNTTPDDLDLHVIYDVSHNIAKVEQHVVDGKERTLLVHRKGSTRAFPPHHPLIAVDYQLTGQPVLIGGTMGTCSYVLTGTEQGMTETFGTTCHGAGRALSRAKSRRNLDFQDVLDKLADMGIAIRVASPKLVMEEAPESYKNVTDVVNTCHDAGISKKAIKLRPIAVIKG
B2: treacle protein (protein, UniProt Q13428 1-1488)
chain: MAEARKRRELLPLIYHHLLRAGYVRAAREVKEQSGQKCFLAQPVTLLDIYTHWQQTSELGRKRKAEEDAALQAKKTRVSDPISTSESSEEEEEAEAETAKATPRLASTNSSVLGADLPSSMKEKAKAETEKAGKTGNSMPHPATGKTVANLLSGKSPRKSAEPSANTTLVSETEEEGSVPAFGAAAKPGMVSAGQADSSSEDTSSSSDETDVEGKPSVKPAQVKASSVSTKESPARKAAPAPGKVGDVTPQVKGGALPPAKRAKKPEEESESSEEGSESEEEAPAGTRSQVKASEKILQVRAASAPAKGTPGKGATPAPPGKAGAVASQTKAGKPEEDSESSSEESSDSEEETPAAKALLQAKASGKTSQVGAASAPAKESPRKGAAPAPPGKTGPAVAKAQAGKREEDSQSSSEESDSEEEAPAQAKPSGKAPQVRAASAPAKESPRKGAAPAPPRKTGPAAAQVQVGKQEEDSRSSSEESDSDREALAAMNAAQVKPLGKSPQVKPASTMGMGPLGKGAGPVPPGKVGPATPSAQVGKWEEDSESSSEESSDSSDGEVPTAVAPAQEKSLGNILQAKPTSSPAKGPPQKAGPVAVQVKAEKPMDNSESSEESSDSADSEEAPAAMTAAQAKPALKIPQTKACPKKTNTTASAKVAPVRVGTQAPRKAGTATSPAGSSPAVAGGTQRPAEDSSSSEESDSEEEKTGLAVTVGQAKSVGKGLQVKAASVPVKGSLGQGTAPVLPGKTGPTVTQVKAEKQEDSESSEEESDSEEAAASPAQVKTSVKKTQAKANPAAARAPSAKGTISAPGKVVTAAAQAKQRSPSKVKPPVRNPQNSTVLARGPASVPSVGKAVATAAQAQTGPEEDSGSSEEESDSEEEAETLAQVKPSGKTHQIRAALAPAKESPRKGAAPTPPGKTGPSAAQAGKQDDSGSSSEESDSDGEAPAAVTSAQVIKPPLIFVDPNRSPAGPAATPAQAQAASTPRKARASESTARSSSSESEDEDVIPATQCLTPGIRTNVVTMPTAHPRIAPKASMAGASSSKESSRISDGKKQEGPATQVSKKNPASLPLTQAALKVLAQKASEAQPPVARTQPSSGVDSAVGTLPATSPQSTSVQAKGTNKLRKPKLPEVQQATKAPESSDDSEDSSDSSSGSEEDGEGPQGAKSAHTLGPTPSRTETLVEETAAESSEDDVVAPSQSLLSGYMTPGLTPANSQASKATPKLDSSPSVSSTLAAKDDPDGKQEAKPQQAAGMLSPKTGGKEAASGTTPQKSRKPKKGAGNPQASTLALQSNITQCLLGQPWPLNEAQVQASVVKVLTELLEQERKKVVDTTKESSRKGWESRKRKLSGDQPAARTPRSKKKKKLGAGEGGEASVSPEKTSTTSKGKAKRDKASGDVKEKKGKGSLGSQGAKDEPEEELQKGMGTVEGGDQSNPKSKKEKKKSDKRKKDKEKKEKKKKAKKASTKDSESPSQKKKKKKKKTAEQTV
B3: Myb-binding protein 1A (endogenous, human) (protein, UniProt Q9BQG0 1-1328)
chain: MESRDPAQPMSPGEATQSGARPADRYGLLKHSREFLDFFWDIAKPEQETRLAATEKLLEYLRGRPKGSEMKYALKRLITGLGVGRETARPCYSLALAQLLQSFEDLPLCSILQQIQEKYDLHQVKKAMLRPALFANLFGVLALFQSGRLVKDQEALMKSVKLLQALAQYQNHLQEQPRKALVDILSEVSKATLQEILPEVLKADLNIILSSPEQLELFLLAQQKVPSKLKKLVGSVNLFSDENVPRLVNVLKMAASSVKKDRKLPAIALDLLRLALKEDKFPRFWKEVVEQGLLKMQFWPASYLCFRLLGAALPLLTKEQLHLVMQGDVIRHYGEHVCTAKLPKQFKFAPEMDDYVGTFLEGCQDDPERQLAVLVAFSSVTNQGLPVTPTFWRVVRFLSPPALQGYVAWLRAMFLQPDLDSLVDFSTNNQKKAQDSSLHMPERAVFRLRKWIIFRLVSIVDSLHLEMEEALTEQVARFCLFHSFFVTKKPTSQIPETKHPFSFPLENQAREAVSSAFFSLLQTLSTQFKQAPGQTQGGQPWTYHLVQFADLLLNHSHNVTTVTPFTAQQRQAWDRMLQTLKELEAHSAEARAAAFQHLLLLVGIHLLKSPAESCDLLGDIQTCIRKSLGEKPRRSRTKTIDPQEPPWVEVLVEILLALLAQPSHLMRQVARSVFGHICSHLTPRALQLILDVLNPETSEDENDRVVVTDDSDERRLKGAEDKSEEGEDNRSSESEEESEGEESEEEERDGDVDQGFREQLMTVLQAGKALGGEDSENEEELGDEAMMALDQSLASLFAEQKLRIQARRDEKNKLQKEKALRRDFQIRVLDLVEVLVTKQPENALVLELLEPLLSIIRRSLRSSSSKQEQDLLHKTARIFTHHLCRARRYCHDLGERAGALHAQVERLVQQAGRQPDSPTALYHFNASLYLLRVLKGNTAEGCVHETQEKQKAGTDPSHMPTGPQAASCLDLNLVTRVYSTALSSFLTKRNSPLTVPMFLSLFSRHPVLCQSLLPILVQHITGPVRPRHQACLLLQKTLSMREVRSCFEDPEWKQLMGQVLAKVTENLRVLGEAQTKAQHQQALSSLELLNVLFRTCKHEKLTLDLTVLLGVLQGQQQSLQQGAHSTGSSRLHDLYWQAMKTLGVQRPKLEKKDAKEIPSATQSPISKKRKKKGFLPETKKRKKRKSEDGTPAEDGTPAATGGSQPPSMGRKKRNRTKAKVPAQANGTPTTKSPAPGAPTRSPSTPAKSPKLQKKNQKPSQVNGAPGSPTEPAGQKQHQKALPKKGVLGKSPLSALARKKARLSLVIRSPSLLQSGAKKKAQVRKAGKP
B4: 5′-3′ exoribonuclease XRN2 (protein, UniProt Q9H0D6 1-950)
chain: MGVPAFFRWLSRKYPSIIVNCVEEKPKECNGVKIPVDASKPNPNDVEFDNLYLDMNGIIHPCTHPEDKPAPKNEDEMMVAIFEYIDRLFSIVRPRRLLYMAIDGVAPRAKMNQQRSRRFRASKEGMEAAVEKQRVREEILAKGGFLPPEEIKERFDSNCITPGTEFMDNLAKCLRYYIADRLNNDPGWKNLTVILSDASAPGEGEHKIMDYIRRQRAQPNHDPNTHHCLCGADADLIMLGLATHEPNFTIIREEFKPNKPKPCGLCNQFGHEVKDCEGLPREKKGKHDELADSLPCAEGEFIFLRLNVLREYLERELTMASLPFTFDVERSIDDWVFMCFFVGNDFLPHLPSLEIRENAIDRLVNIYKNVVHKTGGYLTESGYVNLQRVQMIMLAVGEVEDSIFKKRKDDEDSFRRRQKEKRKRMKRDQPAFTPSGILTPHALGSRNSPGSQVASNPRQAAYEMRMQNNSSPSISPNTSFTSDGSPSPLGGIKRKAEDSDSEPEPEDNVRLWEAGWKQRYYKNKFDVDAADEKFRRKVVQSYVEGLCWVLRYYYQGCASWKWYYPFHYAPFASDFEGIADMPSDFEKGTKPFKPLEQLMGVFPAASGNFLPPSWRKLMSDPDSSIIDFYPEDFAIDLNGKKYAWQGVALLPFVDERRLRAALEEVYPDLTPEETRRNSLGGDVLFVGKHHPLHDFILELYQTGSTEPVEVPPELCHGIQGKFSLDEEAILPDQIVCSPVPMLRDLTQNTVVSINFKDPQFAEDYIFKAVMLPGARKPAAVLKPSDWEKSSNGRQWKPQLGFNRDRRPVHLDQAAFRTLGHVMPRGSGTGIYSNAAPPPVTYQGNLYRPLLRGQAQIPKLMSNMRPQDSWRGPPPLFQQQRFDRGVGAEPLLPWNRMLQTQNAAFQPNQYQMLAGPGGYPPRRDDRGGRQGYPREGRKYPLPPPSGRYNWN
B5: H/ACA ribonucleoprotein complex subunit 4 (protein, UniProt O60832 1-514)
chain: MADAEVIILPKKHKKKKERKSLPEEDVAEIQHAEEFLIKPESKVAKLDTSQWPLLLKNFDKLNVRTTHYTPLACGSNPLKREIGDYIRTGFINLDKPSNPSSHEVVAWIRRILRVEKTGHSGTLDPKVTGCLIVCIERATRLVKSQQSAGKEYVGIVRLHNAIEGGTQLSRALETLTGALFQRPPLIAAVKRQLRVRTIYESKMIEYDPERRLGIFWVSCEAGTYIRTLCVHLGLLLGVGGQMQELRRVRSGVMSEKDHMVTMHDVLDAQWLYDNHKDESYLRRVVYPLEKLLTSHKRLVMKDSAVNAICYGAKIMLPGVLRYEDGIEVNQEIVVITTKGEAICMAIALMTTAVISTCDHGIVAKIKRVIMERDTYPRKWGLGPKASQKKLMIKQGLLDKHGKPTDSTPATWKQEYVDYSESAKKEVVAEVVKAPQVVAEAAKTAKRKRESESESDETPPAAPQLIKKEKKKSKKDKKAKAGLESGAEPGDGDSDTTKKKKKKKKAKEVELVSE
B6: fibrillarin (protein, UniProt P22087 1-321)
chain: MKPGFSPRGGGFGGRGGFGDRGGRGGRGGFGGGRGRGGGFRGRGRGGGGGGGGGGGGGRGGGGFHSGGNRGRGRGGKRGNQSGKNVMVEPHRHEGVFICRGKEDALVTKNLVPGESVYGEKRVSISEGDDKIEYRAWNPFRSKLAAAILGGVDQIHIKPGAKVLYLGAASGTTVSHVSDIVGPDGLVYAVEFSHRSGRDLINLAKKRTNIIPVIEDARHPHKYRMLIAMVDVIFADVAQPDQTRIVALNAHTFLRNGGHFVISIKANCIDSTASAEAVFASEVKKMQQENMKPQEQLTLEPYERDHAVVVGVYRPPPKVKN
B7: nucleolar protein 58 (protein, UniProt Q9Y2X3 1-529)
chain: MLVLFETSVGYAIFKVLNEKKLQEVDSLWKEFETPEKANKIVKLKHFEKFQDTAEALAAFTALMEGKINKQLKKVLKKIVKEAHEPLAVADAKLGGVIKEKLNLSCIHSPVVNELMRGIRSQMDGLIPGVEPREMAAMCLGLAHSLSRYRLKFSADKVDTMIVQAISLLDDLDKELNNYIMRCREWYGWHFPELGKIISDNLTYCKCLQKVGDRKNYASAKLSELLPEEVEAEVKAAAEISMGTEVSEEDICNILHLCTQVIEISEYRTQLYEYLQNRMMAIAPNVTVMVGELVGARLIAHAGSLLNLAKHAASTVQILGAEKALFRALKSRRDTPKYGLIYHASLVGQTSPKHKGKISRMLAAKTVLAIRYDAFGEDSSSAMGVENRAKLEARLRTLEDRGIRKISGTGKALAKTEKYEHKSEVKTYDPSGDSTLPTCSKKRKIEQVDKEDEITEKKAKKAKIKVKVEEEEEEKVAEEEETSVKKKKKRGKKKHIKEEPLSEEEPCTSTAIASPEKKKKKKKKRENED

Molecular target: EGFP-tagged PRRSV nucleocapsid (N) protein (PRRSV (type 2, strain 01NP1))
Test: affinity purification with mass spectrometry; EGFP-N (control: EGFP) overexpressed in HEK293T, captured from lysate on GFP-trap agarose beads; lysis and wash buffer 50 mM HEPES pH 7.4, 150 mM NaCl, 1 mM EDTA, 10% glycerol, 1% Triton X-100; 2 h at 4 °C, 7 washes; label-free LC-MS/MS, three biological replicates; hits: mean enrichment ratio >= 8, p <= 0.02

Binder	binding
B1	binds
B2	binds
B3	binds
B4	binds
B5	binds
B6	binds
B7	binds
